By UniProt entry, the sequences of proteins in these tests, tags left out.
UniProt P48431: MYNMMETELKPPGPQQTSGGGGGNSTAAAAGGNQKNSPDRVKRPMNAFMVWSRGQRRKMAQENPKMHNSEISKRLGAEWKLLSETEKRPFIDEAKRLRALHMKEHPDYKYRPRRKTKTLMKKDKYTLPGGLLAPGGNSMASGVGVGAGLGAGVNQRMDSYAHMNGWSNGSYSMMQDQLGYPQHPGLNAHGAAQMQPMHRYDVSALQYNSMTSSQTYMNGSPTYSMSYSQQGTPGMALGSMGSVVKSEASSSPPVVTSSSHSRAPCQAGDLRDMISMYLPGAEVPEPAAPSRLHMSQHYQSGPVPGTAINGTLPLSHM

In paper PMC8566473:

Biological target: SOX2 (SRY (sex-determining region Y)-box 2), endogenous in GSCs (human) (UniProt P48431)
Experiment: affinity purification with mass spectrometry; IP of endogenous SOX2 with goat anti-SOX2 or control goat IgG from 1% NP-40 lysates of GSC line B36; protein G-sepharose, 7 washes; SDS-PAGE, in-gel trypsin digestion, LC-MS/MS

- binding: binds
B1: KLHL22 (protein, UniProt Q53GT1 1-634)
chain: MAEEQEFTQLCKLPAQPSHPHCVNNTYRSAQHSQALLRGLLALRDSGILFDVVLVVEGRHIEAHRILLAASCDYFRGMFAGGLKEMEQEEVLIHGVSYNAMCQILHFIYTSELELSLSNVQETLVAACQLQIPEIIHFCCDFLMSWVDEENILDVYRLAELFDLSRLTEQLDTYILKNFVAFSRTDKYRQLPLEKVYSLLSSNRLEVSCETEVYEGALLYHYSLEQVQADQISLHEPPKLLETVRFPLMEAEVLQRLHDKLDPSPLRDTVASALMYHRNESLQPSLQSPQTELRSDFQCVVGFGGIHSTPSTVLSDQAKYLNPLLGEWKHFTASLAPRMSNQGIAVLNNFVYLIGGDNNVQGFRAESRCWRYDPRHNRWFQIQSLQQEHADLSVCVVGRYIYAVAGRDYHNDLNAVERYDPATNSWAYVAPLKREVYAHAGATLEGKMYITCGRRGEDYLKETHCYDPGSNTWHTLADGPVRRAWHGMATLLNKLYVIGGSNNDAGYRRDVHQVACYSCTSGQWSSVCPLPAGHGEPGIAVLDNRIYVLGGRSHNRGSRTGYVHIYDVEKDCWEEGPQLDNSISGLAACVLTLPRSLLLEPPRGTPDRSQADPDFASEVMSVSDWEEFDNSSED

These are yes or no findings as the source states them, for the method shown. In cells and extracts the contact can be indirect. Here binding means that the protein was enriched with, or labelled near, the bait; the list need not be complete.
